# Laboratory results: PMC10675526 (Pharmaceutics, 2023)
# End groups of sequences in plain letters are not given here.
# Test: general procedure: Fmoc solid-phase peptide synthesis
# Conditions: whole synthesis, area percentage of major peak
sequence,measurement,value
RRWCFRVCYRGFCYRKCR,purity (crude or final not stated),96.91%
